{"source": "PubChem BioAssay AID2284378", "about": "(EPA ToxCast)", "note": "This list was built around the results that the source calls inconclusive (neither active nor inactive); the mix of calls is not that of the screen. Potencies beside an inconclusive call are fits to weak or partial responses and may not hold up. Activity calls are given as the source filed them. How the source made its calls: active means hit-call score of the fitted dose curve at least 0.9, where 1 is the maximum; inconclusive means response in the unintended direction; inactive means score below 0.9."}
{"tested_on": "frog Retinoid X Receptor beta (RXRb), gene 394278", "assay": "ATG_frRXRb_EcoTox2: Attagene TRANS-FACTORIAL EcoTox-2 HepG2 Assay for frog Retinoid X Receptor beta (RXRb)", "description": "ATG_EcoTox2 is a cell-based, multiplexed assay created by modifying the existing Attagene TRANS-FACTORIAL system to include a panel of nuclear receptors from some or all the following species: human (Homo sapiens), african clawed frog (Xenopus laevis), rainbow trout (Oncorhynchus mykiss), japanese medaka (Oryzias latipes), and zebrafish (Danio rerio). The ECOTOX2-FACTORIAL format uses HepG2, a human liver cell line, with measurements taken at 24 hours after chemical dosing in a 24-well plate. ATG_frRXRb_EcoTox2 is one of 29 assay components calculated in the ATG_EcoTox2 assay. It is designed to make measurements of mRNA induction, a form of inducible reporter, as detected with fluorescence intensity signals by Reverse transcription polymerase chain reaction (RT-PCR) and Capillary electrophoresis technology.The assay endpoint ATG_frRXRb_EcoTox2 was analyzed in the positive analysis fitting direction relative to DMSO as the negative control and baseline of activity. Using a type of inducible reporter, measures of mRNA for gain-of-signal activity can be used to understand the reporter gene at the transcription factor-level as they relate to the gene RXRb. Furthermore, this assay endpoint can be referred to as a primary readout, because this assay has produced multiple assay endpoints where this one serves a reporter gene function. […]\nHuman liver HepG2 cells are transiently transfected with multiple reporter transcription units (MRTUs) in 6-well plates using FuGene 6 reagent (Roche; 3 ml FuGene/1 mg DNA). […] A major difference between the CIS and TRANS system is that in CIS activities of endogenous TFs are measured, whereas the TRANS assay evaluates changes in activities of exogenous, chimeric NR-Gal4 proteins. […] The fragments were purified using Qiaquick PCR columns (Qiagen), analyzed on an ABI 3130xL genetic analyzer (Applied Biosystems) with peak positions identified by using a set of X-rhodamine (ROX)-labeled MapMarker1000 molecular weight standards (BioVentures). […]"}
{"smiles": "O=P(Oc1ccccc1)(Oc1ccccc1)Oc1ccccc1", "AC50": "inconclusive: 50 µM"}
{"smiles": "CCCCOCN(C(=O)CCl)c1c(CC)cccc1CC", "AC50": "active: 38.5 µM"}
{"smiles": "O=S(=O)(O)C(F)(F)C(F)(F)C(F)(F)C(F)(F)C(F)(F)C(F)(F)F", "AC50": "inconclusive: 50 µM"}
